Test [1] deals with HeLa K (ENP1 immunofluorescence, +LMB). As to the kind of experiment: fraction of cells with nucleolar or nucleolar/nucleoplasmic ENP1 signal (MainHitrate); higher = more cells with nucleolar/nuclear readout signal (for ENP1 -LMB: less RNAPI inhibition; for +LMB ENP1 and RP reporters: stronger nuclear/nucleolar retention, i.e. ribosome biogenesis defect). Conditions: concentration: 1 µM; treatment time: 6 h; ENP1 +LMB; leptomycin B: 20 nM, last 1.5 h.

Test [2] deals with HeLa K (ENP1 immunofluorescence, no LMB). The test is described as above. Conditions: concentration: 1 µM; treatment time: 6 h; ENP1 -LMB; leptomycin B: none.
Test [3] has as its system HeLa RPS2-YFP reporter. In words: fraction of reporter-positive cells with nuclear (nucleolar or nucleolar/nucleoplasmic) RPS2-YFP (MainHitrate); higher = more cells with nucleolar/nuclear readout signal (for ENP1 -LMB: less RNAPI inhibition; for +LMB ENP1 and RP reporters: stronger nuclear/nucleolar retention, i.e. ribosome biogenesis defect). Conditions: concentration: 1 µM; treatment time: 6 h.

Test [4] concerns HeLa RPL29-GFP reporter. As to the kind of experiment: fraction of reporter-positive cells with nuclear (nucleolar or nucleolar/nucleoplasmic) RPL29-GFP (MainHitrate); higher = more cells with nucleolar/nuclear readout signal (for ENP1 -LMB: less RNAPI inhibition; for +LMB ENP1 and RP reporters: stronger nuclear/nucleolar retention, i.e. ribosome biogenesis defect). Conditions: concentration: 1 µM; treatment time: 6 h.

Counter-ions that a name gives are not always drawn. ± gives the standard deviation of the averaged measurements. The list shows a part of the results. These are raw signals, not scaled to a control.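 HeLa cells imaged for ribosome-assembly readouts (ENP1 staining with or without export block, or inducible tagged ribosomal protein reporters); machine learning classified each cell's signal location against solvent (DMSO) controls. Hits exceeded the DMSO false-positive mean by five standard deviations, then were visually confirmed; three biological replicates.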

In the case of `Nc1ncnc2c1ncn2[C@@H]1O[C@H](COP(=O)(O)OP(=O)(O)OP(=O)(O)O)[C@@H](O)[C@H]1O` [ATP (Adenosine-Triphosphate)], the fraction in test [1] is 0.0877 ± 0.13; in test [2] it was 0.9961 ± 0.0067. Besides, the figures for the “fraction of reporter-positive cells with nuclear” value (“fraction … with nuclear” below) in test [3] and in test [4] were 0.112 ± 0.086 and 0.229 ± 0.1, respectively.

Turning to `N=C(N)N` [Guanidine HCl], the fraction in test [1] turned out to be 0.123 ± 0.17; in test [2], 0.981 ± 0.034. The “fraction … with nuclear” value in test [3] came to 0.128 ± 0.11; in test [4] it was 0.239 ± 0.067.

On to `CC1(C)O[C@@H]2C[C@H]3[C@@H]4CCC5=CC(=O)C=C[C@]5(C)[C@H]4[C@@H](O)C[C@]3(C)[C@]2(C(=O)CO)O1` [Desonide], for which the values for the fraction in test [1] and in test [2] were 0.0619 ± 0.045 and 0.9985 ± 0.0027, respectively. Besides, the “fraction … with nuclear” value is 0.147 ± 0.1 in test [3] and 0.271 ± 0.054 in test [4].

On to `NC(=O)N1c2ccccc2CC(=O)c2ccccc21` [Oxcarbazepine], for which the fraction in test [1] worked out at 0.127 ± 0.12; in test [2], 0.9987 ± 0.0022. Further, the “fraction … with nuclear” value turned out to be 0.129 ± 0.07 in test [3] and 0.196 ± 0.053 in test [4].

Turning to `C[C@H](CCC(=O)O)[C@H]1CC[C@H]2[C@@H]3[C@H](O)C[C@@H]4C[C@H](O)CC[C@]4(C)[C@H]3CC[C@]12C` [Chenodeoxycholic acid], the results for the fraction in test [1] and in test [2] were 0.0848 ± 0.086 and 0.992 ± 0.015, respectively. The figures for the “fraction … with nuclear” value in test [3] and in test [4] were 0.101 ± 0.078 and 0.236 ± 0.05, respectively.

Consider `CN1CCN2c3ccccc3Cc3ccccc3C2C1` (stereo unspecified) [Mianserin hydrochloride], for which the fraction in test [1] is 0.152 ± 0.15; in test [2] it was 0.9982 ± 0.003. The “fraction … with nuclear” value came out at 0.127 ± 0.078 in test [3] and 0.192 ± 0.068 in test [4].

Consider `COCCCOc1cc(C[C@@H](C[C@H](N)[C@@H](O)C[C@H](C(=O)NCC(C)(C)C(N)=O)C(C)C)C(C)C)ccc1OC` [Aliskiren hemifumarate], for which the fraction in test [1] worked out at 0.139 ± 0.2; in test [2], 0.988 ± 0.02. Besides, the figures for the “fraction … with nuclear” value in test [3] and in test [4] were 0.0867 ± 0.067 and 0.25 ± 0.075, respectively.

As for `N#CC1(c2ccc(NC(=O)c3cccnc3NCc3ccncc3)cc2)CCCC1` [Apatinib (YN968D1)], the fraction was found to be 0.0998 ± 0.14 in test [1] and 0.993 ± 0.011 in test [2]. The “fraction … with nuclear” value in test [3] is 0.116 ± 0.088; in test [4], 0.22 ± 0.087.

Turning to `CCOC(=O)[C@H](CCc1ccccc1)N[C@H]1CCCN2CCC[C@@H](C(=O)O)N2C1=O` [Cilazapril monohydrate (Inhibace)], the fraction worked out at 0.0835 ± 0.12 in test [1] and 0.9957 ± 0.0074 in test [2]. The figures for the “fraction … with nuclear” value in test [3] and in test [4] were 0.0882 ± 0.077 and 0.209 ± 0.056, respectively.

The values are drawn from the supplement of paper PMC12542422.
